Results deposited as PubChem BioAssay AID1259405 (NCATS, 2018).

Assay: 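Mouse-designed siRNAs used to find CHO productivity engineering targets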 (primary screen)
Cell system: Chinese hamster CHO-K1 ovary cells with stable secreted eGFP expression
Reagent: single siRNA against mouse genes, 0.8 pmol siRNA per well (2 µl of 400 nM stock)
Timing: 3 days
Measurement: 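Per-well intracellular GFP measured by laser scanning cytometry, plus viability from ATP luminescence, each relative to plate median of non-targeting control wells, in %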
Reading the numbers: GFP, % of control: higher = more GFP per well, higher productivity; viability (ATP), % of control: higher = more viable cells (more ATP)
Call rule: 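Called active when intracellular GFP, relative to negative control, is at or above 120%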
The whole screen tested about 50,000 reagents; this is a random part of them. About 4,000 of them (8%) count as active. 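Mouse siRNA library applied to hamster cells; one well for each siRNA.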 Reagents against one gene are numbered here. No sequences are given here.

Or6k8 #1 gave GFP, % of control 51.4; viability (ATP), % of control 29.7; inactive.
Knock-down of Or6k8 #2 gave: GFP, % of control 106; viability (ATP), % of control 119; inactive.
After knock-down of Or6k8 #3 the results were GFP, % of control 47; viability (ATP), % of control 25; inactive.
Silencing of Phf10 #1 came out at: GFP, % of control 97.8; viability (ATP), % of control 132; inactive.
For Phf10 #2, the entry reads GFP, % of control 79.4; viability (ATP), % of control 88.3; inactive.
Knock-down of Mcfd2 #1 resulted in: GFP, % of control 127; viability (ATP), % of control 86.6; active.
Silencing of Mcfd2 #2 resulted in: GFP, % of control 94.2; viability (ATP), % of control 66.3; inactive.
Knock-down of Mcfd2 #3 resulted in: GFP, % of control 55.5; viability (ATP), % of control 63.1; inactive.
E030011O05Rik #1 scored GFP, % of control 53.5; viability (ATP), % of control 55.6; inactive.
Against E030011O05Rik #2, the entry reads GFP, % of control 89.8; viability (ATP), % of control 71; inactive.
Silencing of E030011O05Rik #3 resulted in: GFP, % of control 120; viability (ATP), % of control 80.1; active.
Or5b112 #1 scored GFP, % of control 60.7; viability (ATP), % of control 69.3; inactive.
After knock-down of Or5b112 #2 the results were GFP, % of control 84; viability (ATP), % of control 79.5; inactive.
Against Or5b112 #3 the deposit lists GFP, % of control 31.8; viability (ATP), % of control 38.8; inactive.
Knock-down of Ptgfrn #1 came out at: GFP, % of control 69; viability (ATP), % of control 89.4; inactive.
Ptgfrn #2 scored GFP, % of control 22.3; viability (ATP), % of control 28; inactive.
Against Ptgfrn #3, the entry reads GFP, % of control 41.8; viability (ATP), % of control 45.7; inactive.
Knock-down of Runx1 #1 resulted in: GFP, % of control 34.9; viability (ATP), % of control 35.5; inactive.
Knock-down of Runx1 #2 came out at: GFP, % of control 57.9; viability (ATP), % of control 66.7; inactive.
For Runx1 #3 the deposit lists GFP, % of control 107; viability (ATP), % of control 62.3; inactive.
For Rad9a #1 the deposit lists GFP, % of control 68.2; viability (ATP), % of control 61.9; inactive.
Depletion of Rad9a #2 came out at: GFP, % of control 93.6; viability (ATP), % of control 78.2; inactive.
Rad9a #3 gave GFP, % of control 58.4; viability (ATP), % of control 73.8; inactive.
Knock-down of Or4a74 #1 gave: GFP, % of control 105; viability (ATP), % of control 86.8; inactive.
Or4a74 #2 scored GFP, % of control 72.3; viability (ATP), % of control 81.1; inactive.
Depletion of Or4a74 #3 gave: GFP, % of control 52; viability (ATP), % of control 87; inactive.
Cln8 #1 gave GFP, % of control 53.1; viability (ATP), % of control 90.3; inactive.
Against Cln8 #2 the deposit lists GFP, % of control 102; viability (ATP), % of control 63.8; inactive.
Cln8 #3 showed GFP, % of control 44.5; viability (ATP), % of control 83; inactive.
Silencing of Fam222b #1 came out at: GFP, % of control 23; viability (ATP), % of control 49.5; inactive.
Fam222b #2 gave GFP, % of control 79.6; viability (ATP), % of control 89.5; inactive.
Against Fam222b #3 the deposit lists GFP, % of control 130; viability (ATP), % of control 177; active.
Lepr #1 showed GFP, % of control 77.8; viability (ATP), % of control 36.9; inactive.
After knock-down of Lepr #2, the screen gave GFP, % of control 91.7; viability (ATP), % of control 67.7; inactive.
Lepr #3 scored GFP, % of control 81.5; viability (ATP), % of control 52; inactive.
Tnfrsf21 #1 showed GFP, % of control 108; viability (ATP), % of control 84.5; inactive.
Tnfrsf21 #2 scored GFP, % of control 73.8; viability (ATP), % of control 51.4; inactive.
Tnfrsf21 #3 scored GFP, % of control 141; viability (ATP), % of control 98.9; active.
Tmprss11f #1 showed GFP, % of control 151; viability (ATP), % of control 109; active.
Tmprss11f #2 gave GFP, % of control 53.7; viability (ATP), % of control 62.2; inactive.
After knock-down of Tmprss11f #3, the screen gave GFP, % of control 111; viability (ATP), % of control 109; inactive.

Reagents listed so far called active:
Mcfd2 #1 — GFP, % of control = 127; viability (ATP), % of control = 86.6; activity call = active
E030011O05Rik #3 — GFP, % of control = 120; viability (ATP), % of control = 80.1; activity call = active
Fam222b #3 — GFP, % of control = 130; viability (ATP), % of control = 177; activity call = active
Tnfrsf21 #3 — GFP, % of control = 141; viability (ATP), % of control = 98.9; activity call = active
Tmprss11f #1 — GFP, % of control = 151; viability (ATP), % of control = 109; activity call = active
